Test results published in article PMC4384122.
No constants are given. Whether binding was seen depends on the method and setting. In cells and extracts the contact can be indirect. Some binding calls cover weakened binding; strength is not graded here.

Chains of the proteins cited; added tags and fusions are not shown.
UniProt Q15717: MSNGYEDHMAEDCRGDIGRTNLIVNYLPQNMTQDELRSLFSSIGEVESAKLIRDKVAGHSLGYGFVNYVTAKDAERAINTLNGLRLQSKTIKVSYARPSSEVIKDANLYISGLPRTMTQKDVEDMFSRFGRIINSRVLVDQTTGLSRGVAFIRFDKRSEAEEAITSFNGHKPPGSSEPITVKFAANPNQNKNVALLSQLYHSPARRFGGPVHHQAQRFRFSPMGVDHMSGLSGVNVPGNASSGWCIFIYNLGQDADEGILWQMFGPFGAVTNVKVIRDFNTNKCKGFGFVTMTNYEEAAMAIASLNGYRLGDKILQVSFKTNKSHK
UniProt P00519: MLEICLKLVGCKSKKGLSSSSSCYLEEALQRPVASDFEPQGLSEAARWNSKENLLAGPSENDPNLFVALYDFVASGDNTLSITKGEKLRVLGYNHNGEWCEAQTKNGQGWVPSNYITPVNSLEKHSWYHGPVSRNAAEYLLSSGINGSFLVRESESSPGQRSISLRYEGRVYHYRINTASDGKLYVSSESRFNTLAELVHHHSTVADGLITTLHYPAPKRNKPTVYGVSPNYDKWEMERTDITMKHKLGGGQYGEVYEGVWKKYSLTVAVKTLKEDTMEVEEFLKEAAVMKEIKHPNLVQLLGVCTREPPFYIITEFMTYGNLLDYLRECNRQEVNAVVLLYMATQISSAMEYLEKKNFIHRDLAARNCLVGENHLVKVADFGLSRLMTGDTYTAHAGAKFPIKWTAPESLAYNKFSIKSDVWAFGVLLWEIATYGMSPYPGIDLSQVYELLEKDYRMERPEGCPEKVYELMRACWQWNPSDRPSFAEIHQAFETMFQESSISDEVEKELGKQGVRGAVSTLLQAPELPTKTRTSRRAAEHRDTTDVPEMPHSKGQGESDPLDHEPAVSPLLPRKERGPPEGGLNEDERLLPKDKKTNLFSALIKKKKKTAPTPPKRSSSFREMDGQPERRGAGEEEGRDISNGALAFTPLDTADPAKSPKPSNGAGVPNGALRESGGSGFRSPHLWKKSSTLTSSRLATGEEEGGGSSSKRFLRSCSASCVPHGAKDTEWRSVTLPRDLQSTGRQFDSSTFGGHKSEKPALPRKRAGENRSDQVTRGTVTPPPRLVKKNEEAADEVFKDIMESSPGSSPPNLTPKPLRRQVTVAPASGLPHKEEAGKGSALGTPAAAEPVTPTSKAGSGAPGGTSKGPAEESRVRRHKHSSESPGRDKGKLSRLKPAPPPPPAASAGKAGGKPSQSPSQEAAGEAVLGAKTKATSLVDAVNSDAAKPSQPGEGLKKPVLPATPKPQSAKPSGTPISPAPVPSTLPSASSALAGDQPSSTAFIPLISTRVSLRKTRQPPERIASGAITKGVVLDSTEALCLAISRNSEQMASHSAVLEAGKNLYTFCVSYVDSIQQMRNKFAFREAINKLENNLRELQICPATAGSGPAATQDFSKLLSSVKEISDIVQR

Columns and labels:
Flag-HuRwild = Flag-HuRwild (UniProt Q15717); assay: co-IP; immunoprecipitation with Flag antibody of Flag-HuR or Flag-HuRmut, immunoblot for Src and Abl1; mouse IgG as control; in the presence of growth factors
[1] = biological target: HuR (mRNA binding protein HuR), endogenous (human (endogenous in U251)) (UniProt Q15717); assay: co-IP; immunoprecipitation of HuR (HuR3A2 antibody) from cell lysates, immunoblot for Abl-1; cells in control condition, treated with EGF and bFGF, or EGF and bFGF with dasatinib 500 nM

- binding (Flag-HuRwild): binds
- binding [1]: binds
Substance: Abl-1 kinase, endogenous (from UniProt P00519 1-1130) (enzyme)
